Reference: publication PMC11533276
Results are given in words; binding and its absence hold for the method and conditions named. Binding seen in cells or lysates may run through a third protein. Some results given as binding are weak or reduced against the parent protein; the word gives no strength. Each block holds one substance with its values, some of them ahead of it.

Amino acid sequences for entries named in this document (tags omitted).
UniProt Q13464: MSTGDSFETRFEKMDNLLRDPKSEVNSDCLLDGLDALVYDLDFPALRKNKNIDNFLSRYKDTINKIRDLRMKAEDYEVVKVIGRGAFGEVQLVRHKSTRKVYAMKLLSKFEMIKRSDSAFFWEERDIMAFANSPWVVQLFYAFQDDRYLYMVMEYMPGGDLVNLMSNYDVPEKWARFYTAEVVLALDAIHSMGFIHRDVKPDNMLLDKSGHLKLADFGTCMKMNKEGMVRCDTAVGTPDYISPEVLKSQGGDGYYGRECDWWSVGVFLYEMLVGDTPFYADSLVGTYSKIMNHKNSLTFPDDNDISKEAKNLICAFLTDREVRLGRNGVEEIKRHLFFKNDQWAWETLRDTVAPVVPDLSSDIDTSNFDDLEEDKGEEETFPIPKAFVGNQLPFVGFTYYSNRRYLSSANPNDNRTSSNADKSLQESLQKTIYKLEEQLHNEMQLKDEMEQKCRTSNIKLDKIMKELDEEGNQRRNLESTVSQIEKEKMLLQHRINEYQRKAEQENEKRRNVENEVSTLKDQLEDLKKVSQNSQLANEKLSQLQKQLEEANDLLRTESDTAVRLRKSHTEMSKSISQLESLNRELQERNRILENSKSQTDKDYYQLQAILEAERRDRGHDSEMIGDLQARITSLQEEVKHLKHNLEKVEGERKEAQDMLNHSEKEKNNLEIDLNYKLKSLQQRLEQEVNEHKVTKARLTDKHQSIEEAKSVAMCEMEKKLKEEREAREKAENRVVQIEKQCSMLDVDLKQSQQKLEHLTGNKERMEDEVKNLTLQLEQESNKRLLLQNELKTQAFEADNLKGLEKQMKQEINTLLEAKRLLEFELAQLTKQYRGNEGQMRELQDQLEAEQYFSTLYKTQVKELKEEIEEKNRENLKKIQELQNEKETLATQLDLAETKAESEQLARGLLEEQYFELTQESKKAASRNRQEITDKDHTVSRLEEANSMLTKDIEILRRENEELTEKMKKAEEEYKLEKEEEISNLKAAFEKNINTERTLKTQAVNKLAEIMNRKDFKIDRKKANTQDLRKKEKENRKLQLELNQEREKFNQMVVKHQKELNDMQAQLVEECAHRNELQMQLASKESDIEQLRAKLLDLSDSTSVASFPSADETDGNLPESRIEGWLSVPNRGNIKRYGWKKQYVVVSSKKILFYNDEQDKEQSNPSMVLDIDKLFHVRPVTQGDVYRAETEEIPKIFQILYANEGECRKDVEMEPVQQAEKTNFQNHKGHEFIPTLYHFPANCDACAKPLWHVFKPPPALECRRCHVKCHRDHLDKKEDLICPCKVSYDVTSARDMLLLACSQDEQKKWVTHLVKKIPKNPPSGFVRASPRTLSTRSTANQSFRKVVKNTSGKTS
UniProt P19484: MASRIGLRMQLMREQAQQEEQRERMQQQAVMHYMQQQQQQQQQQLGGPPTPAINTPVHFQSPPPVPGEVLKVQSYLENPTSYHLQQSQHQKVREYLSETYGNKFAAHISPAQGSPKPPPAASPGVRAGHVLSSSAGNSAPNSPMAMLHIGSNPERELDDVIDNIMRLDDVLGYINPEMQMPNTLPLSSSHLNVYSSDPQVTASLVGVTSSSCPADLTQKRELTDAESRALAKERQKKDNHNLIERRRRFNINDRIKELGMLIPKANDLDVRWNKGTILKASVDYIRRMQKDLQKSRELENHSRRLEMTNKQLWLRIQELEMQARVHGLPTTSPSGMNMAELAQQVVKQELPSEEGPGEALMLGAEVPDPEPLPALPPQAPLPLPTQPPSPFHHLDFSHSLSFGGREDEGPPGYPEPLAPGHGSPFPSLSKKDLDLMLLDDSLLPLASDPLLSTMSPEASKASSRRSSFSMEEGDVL
UniProt Q9R210: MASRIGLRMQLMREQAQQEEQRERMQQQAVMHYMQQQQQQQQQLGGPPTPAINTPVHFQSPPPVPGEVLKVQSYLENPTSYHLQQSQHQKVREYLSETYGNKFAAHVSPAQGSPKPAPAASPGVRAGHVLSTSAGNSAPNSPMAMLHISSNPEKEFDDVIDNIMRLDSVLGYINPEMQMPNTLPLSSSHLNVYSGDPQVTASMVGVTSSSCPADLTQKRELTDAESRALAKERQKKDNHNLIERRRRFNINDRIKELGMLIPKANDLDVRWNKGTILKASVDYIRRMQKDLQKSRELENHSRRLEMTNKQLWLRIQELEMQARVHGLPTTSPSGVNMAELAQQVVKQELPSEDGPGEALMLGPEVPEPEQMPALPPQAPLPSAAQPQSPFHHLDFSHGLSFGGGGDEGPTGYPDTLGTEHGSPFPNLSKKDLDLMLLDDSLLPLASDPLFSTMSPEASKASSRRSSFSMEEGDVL
UniProt O75116: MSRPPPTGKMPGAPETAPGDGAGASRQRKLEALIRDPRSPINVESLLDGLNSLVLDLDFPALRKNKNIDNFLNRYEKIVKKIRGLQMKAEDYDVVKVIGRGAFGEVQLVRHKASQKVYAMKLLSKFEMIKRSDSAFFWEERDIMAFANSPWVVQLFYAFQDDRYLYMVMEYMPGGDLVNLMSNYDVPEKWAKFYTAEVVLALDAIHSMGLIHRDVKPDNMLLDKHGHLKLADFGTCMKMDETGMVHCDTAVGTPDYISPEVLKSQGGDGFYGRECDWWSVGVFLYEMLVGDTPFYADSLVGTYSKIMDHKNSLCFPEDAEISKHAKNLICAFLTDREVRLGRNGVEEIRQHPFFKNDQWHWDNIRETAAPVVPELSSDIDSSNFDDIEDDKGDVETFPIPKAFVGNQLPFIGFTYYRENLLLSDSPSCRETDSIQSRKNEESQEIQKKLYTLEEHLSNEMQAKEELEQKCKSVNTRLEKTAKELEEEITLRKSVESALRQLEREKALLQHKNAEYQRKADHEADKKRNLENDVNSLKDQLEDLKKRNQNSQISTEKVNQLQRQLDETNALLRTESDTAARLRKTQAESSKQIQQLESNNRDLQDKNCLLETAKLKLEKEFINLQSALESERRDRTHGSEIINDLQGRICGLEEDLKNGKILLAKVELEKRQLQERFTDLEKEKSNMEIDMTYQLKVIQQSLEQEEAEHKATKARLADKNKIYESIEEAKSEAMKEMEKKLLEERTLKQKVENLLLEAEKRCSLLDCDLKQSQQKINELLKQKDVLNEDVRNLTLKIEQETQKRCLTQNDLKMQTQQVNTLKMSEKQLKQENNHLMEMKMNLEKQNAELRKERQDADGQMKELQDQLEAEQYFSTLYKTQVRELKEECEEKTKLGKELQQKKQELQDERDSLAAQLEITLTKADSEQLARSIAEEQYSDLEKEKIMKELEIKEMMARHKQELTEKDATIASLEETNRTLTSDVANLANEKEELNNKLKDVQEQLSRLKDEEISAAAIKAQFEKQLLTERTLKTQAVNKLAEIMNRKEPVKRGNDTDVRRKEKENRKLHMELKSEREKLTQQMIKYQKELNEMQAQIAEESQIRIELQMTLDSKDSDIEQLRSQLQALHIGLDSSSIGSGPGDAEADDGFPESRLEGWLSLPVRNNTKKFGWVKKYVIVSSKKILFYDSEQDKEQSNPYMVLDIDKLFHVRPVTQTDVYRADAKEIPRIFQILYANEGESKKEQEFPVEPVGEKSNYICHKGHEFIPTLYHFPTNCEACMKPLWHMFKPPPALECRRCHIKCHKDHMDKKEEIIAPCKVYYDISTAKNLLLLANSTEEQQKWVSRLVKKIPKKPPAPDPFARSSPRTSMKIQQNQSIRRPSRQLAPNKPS
UniProt P70335: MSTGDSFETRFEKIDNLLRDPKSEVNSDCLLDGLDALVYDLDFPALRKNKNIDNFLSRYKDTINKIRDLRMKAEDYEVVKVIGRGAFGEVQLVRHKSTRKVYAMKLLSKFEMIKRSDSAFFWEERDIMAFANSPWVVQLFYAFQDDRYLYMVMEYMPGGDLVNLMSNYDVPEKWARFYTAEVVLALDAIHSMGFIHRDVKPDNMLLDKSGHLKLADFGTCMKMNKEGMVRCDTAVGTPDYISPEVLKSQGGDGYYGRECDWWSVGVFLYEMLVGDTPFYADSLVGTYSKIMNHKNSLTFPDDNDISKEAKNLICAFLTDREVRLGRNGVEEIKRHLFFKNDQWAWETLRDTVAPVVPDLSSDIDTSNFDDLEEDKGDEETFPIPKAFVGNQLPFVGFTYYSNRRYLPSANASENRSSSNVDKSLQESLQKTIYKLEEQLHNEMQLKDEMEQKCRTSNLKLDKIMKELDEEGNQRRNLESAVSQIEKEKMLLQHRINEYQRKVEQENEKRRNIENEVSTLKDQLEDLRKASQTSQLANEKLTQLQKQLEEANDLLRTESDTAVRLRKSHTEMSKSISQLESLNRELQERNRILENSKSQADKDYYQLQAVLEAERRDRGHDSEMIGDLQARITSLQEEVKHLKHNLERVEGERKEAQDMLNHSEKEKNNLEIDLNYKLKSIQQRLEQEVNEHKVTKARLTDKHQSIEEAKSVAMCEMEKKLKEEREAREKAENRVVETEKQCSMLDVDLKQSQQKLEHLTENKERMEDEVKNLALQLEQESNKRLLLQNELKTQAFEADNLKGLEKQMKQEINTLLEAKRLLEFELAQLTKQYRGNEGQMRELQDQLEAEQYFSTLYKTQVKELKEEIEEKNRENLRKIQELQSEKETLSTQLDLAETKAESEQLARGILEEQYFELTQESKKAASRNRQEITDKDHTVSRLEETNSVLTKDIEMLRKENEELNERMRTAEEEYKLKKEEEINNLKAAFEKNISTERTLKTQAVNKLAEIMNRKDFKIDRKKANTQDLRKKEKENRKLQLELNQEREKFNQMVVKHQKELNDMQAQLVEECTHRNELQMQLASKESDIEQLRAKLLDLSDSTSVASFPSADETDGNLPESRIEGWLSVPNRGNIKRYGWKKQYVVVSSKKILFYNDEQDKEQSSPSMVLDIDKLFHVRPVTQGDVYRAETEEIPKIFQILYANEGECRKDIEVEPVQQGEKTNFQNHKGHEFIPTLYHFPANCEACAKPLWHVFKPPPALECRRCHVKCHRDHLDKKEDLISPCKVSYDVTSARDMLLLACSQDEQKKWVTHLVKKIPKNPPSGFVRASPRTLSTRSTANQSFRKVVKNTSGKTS

Assays:
[1] = target: Rho-associated coiled-coil kinase 1 (human (endogenous in HEK-293T)) (UniProt Q13464); assay: co-IP; HEK-293T lysate (Pierce IP lysis buffer); anti-ROCK1 antibody overnight at 4 °C, protein A/G agarose; immunoblotting
[2] = target: Transcription factor EB (human (endogenous in HEK-293T)) (UniProt P19484); assay: proximity ligation; Duolink in situ PLA Kit (Red) on HEK-293T cells; also after control siRNA or ROCK1 siRNA
[3] = target: TFEB (mouse hippocampus) (mouse (endogenous in hippocampus of APP/PS1 mice)) (UniProt Q9R210); assay: proximity ligation; PLA in the hippocampal CA3 region of APP/PS1 mice microinjected with AAV-sh-Con or AAV-sh-ROCK1

binding [1]: no binding
Substance: cation-independent mannose-6-phosphate receptor (from UniProt P11717 41-2491)

binding [2]: no binding
Substance: ROCK2 (from UniProt O75116 1-1388) (enzyme)

binding [3]: binds
Substance: ROCK1 (mouse hippocampus) (from UniProt P70335 1-1354) (enzyme)
